Values from PubChem BioAssay AID686938 (Drosophila RNAi Screening Center, 2013).

- Screen: 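Knock-downs reducing store-operated calcium influx in Drosophila cells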 (primary screen)
- System: Drosophila S2R+ cells
- Knock-down reagent: long dsRNA against Drosophila genes, about 0.25 µg dsRNA per well, roughly 10,000 cells
- Timing: 5 days of knock-down before the calcium assay
- Treatment: thapsigargin (SERCA pump blocker) to empty calcium stores; entry signal taken 4 min after adding it
- Read-out: 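Duplicate raw fluo-4 intensities per well from a plate reader, at rest and four minutes after thapsigargin emptied calcium stores; entry-to-rest ratio filled for only some wells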
- Reading the numbers: calcium entry signal: higher = stronger calcium signal after store depletion; resting calcium signal: higher = higher resting calcium signal
- Rule for the call: 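Hit if the duplicate-averaged plate z-score for entry over resting signal is under −3; wells with weak total dye signal (Fmax z < −2) or more than 5 off-targets removed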
- Meaning of the calls: active = strongly reduced calcium entry; inactive = no strong reduction
The deposit covers about 23,000 reagents; below is an unselected part of those with a known target gene and a result. Of all reagents, 75 (0.33%) were called active. 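Raw plate signals without normalisation; calls rest on plate z-scores that were not deposited; ratio present for only 364 wells.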 Names joined by + are all predicted targets of the reagent. The record does not give: the dose of the treatment.

target	dsRNA	calcium entry signal, replicate 1 (fluorescence units)	calcium entry signal, replicate 2 (fluorescence units)	resting calcium signal, replicate 1 (fluorescence units)	resting calcium signal, replicate 2 (fluorescence units)	Call
Adat1	DRSC03479	4.07e7	2.97e7	1.76e7	1.41e7	inactive
Dyro	DRSC10598	3.07e7	5.09e7	1.70e7	2.27e7	inactive
CG14495	DRSC06466	4.57e7	4.10e7	2.02e7	1.89e7	inactive
Jhbp12	DRSC14621	3.90e7	4.13e7	2.19e7	1.69e7	inactive
Tmtc2	DRSC00272	4.87e7		2.81e7		inactive
Cdk9	DRSC04601	1.68e7	2.50e7	9.98e6	1.32e7	inactive
mts	DRSC03574	3.03e7		2.21e7		active
Gdh	DRSC16679	3.18e7	2.69e7	1.72e7	1.28e7	inactive
GluRIIB	DRSC03335	2.45e7	2.78e7	1.27e7	1.26e7	inactive
Dab	DRSC11140	3.74e7	4.14e7	1.90e7	1.78e7	inactive
CG13751	DRSC06422	2.61e7	3.52e7	1.40e7	1.56e7	inactive
Ser12	DRSC00786	2.87e7	3.35e7	1.51e7	1.55e7	inactive
Cpr78Ca	DRSC11651	2.09e7	3.57e7	1.01e7	1.54e7	inactive
CG6178	DRSC15984	2.96e7	3.08e7	1.39e7	1.40e7	inactive
CG42710	DRSC01034	3.34e7	5.41e7	1.82e7	2.34e7	inactive
Golgin245	DRSC04374	4.27e7		2.20e7		inactive
Golgin245	DRSC22012	2.14e7	3.18e7	1.10e7	1.74e7	inactive
Dph5	DRSC16653	4.28e7	2.65e7	2.04e7	1.33e7	inactive
Rel	DRSC16819	3.26e7	3.91e7	1.33e7	1.58e7	inactive
CG4829	DRSC19920	3.95e7	3.78e7	1.84e7	1.71e7	inactive
CG6985	DRSC16164	4.26e7	3.74e7	1.98e7	1.83e7	inactive
disp	DRSC12376	4.42e7	3.30e7	2.37e7	1.72e7	inactive
Ste:CG33238 + Ste:CG33241 + Ste:CG33236 + 11 more	DRSC19004	1.95e7	3.19e7	9.99e6	1.39e7	inactive
Ste:CG33238 + Ste:CG33241 + Ste:CG33236 + 11 more	DRSC21260	4.02e7	5.05e7	2.14e7	2.18e7	inactive
CG16985	DRSC08501	4.30e7	5.67e7	2.02e7	2.32e7	inactive
Mad	DRSC00759	2.62e7	2.27e7	1.38e7	1.12e7	inactive
PIG-G	DRSC06823	4.07e7		2.06e7		inactive
mof	DRSC18795	2.84e7	3.35e7	1.78e7	2.01e7	inactive
tfc	DRSC07953	3.77e7	3.42e7	1.81e7	1.62e7	inactive
tfc	DRSC07954	4.20e7	4.07e7	1.94e7	1.67e7	inactive
tfc	DRSC08626	3.12e7	2.94e7	1.42e7	1.62e7	inactive
tfc	DRSC21704	4.27e7	3.36e7	2.16e7	1.56e7	inactive
CG2113	DRSC08554	4.25e7	4.09e7	2.26e7	1.98e7	inactive
Cyp4d8	DRSC11131	4.40e7	3.42e7	2.96e7	1.59e7	inactive
Rac1	DRSC08688	2.91e7	3.23e7	1.59e7	1.55e7	inactive
CCAP	DRSC15674	4.17e7	2.95e7	2.06e7	1.35e7	inactive
CG1647	DRSC15134	3.76e7	4.58e7	1.67e7	1.92e7	inactive
Socs36E	DRSC02455	4.29e7	3.77e7	2.07e7	1.49e7	inactive
CG31606	DRSC01012	3.51e7	4.60e7	1.63e7	1.91e7	inactive
ubl	DRSC04998	2.43e7	2.68e7	1.27e7	1.18e7	inactive
CG13442	DRSC06402	2.56e7	2.83e7	1.28e7	1.29e7	inactive
Lsp1alpha	DRSC20258	4.57e7	3.11e7	2.26e7	1.49e7	inactive
pdm2	DRSC02496	4.53e7	3.01e7	1.96e7	1.53e7	inactive
pdm2	DRSC02497	5.27e7	3.24e7	2.26e7	1.63e7	inactive
pdm2	DRSC03587	4.97e7	3.64e7	2.22e7	1.84e7	inactive
Rheb	DRSC12148	3.32e7	3.01e7	1.96e7	1.79e7	inactive
BubR1	DRSC04838	3.11e7	3.65e7	1.94e7	2.33e7	active
Atg1	DRSC09809	5.14e7	3.65e7	3.29e7	1.53e7	inactive
Atg1	DRSC09810	2.18e7	3.32e7	1.16e7	1.48e7	inactive
ND-B8	DRSC00449	2.19e7	2.51e7	1.11e7	1.20e7	inactive
CG14478	DRSC06450	5.77e7	5.65e7	2.38e7	2.73e7	inactive
yellow-f2	DRSC16372	4.27e7	5.18e7	1.59e7	2.15e7	inactive
CheB74a	DRSC09503	4.33e7	4.93e7	1.92e7	2.26e7	inactive
CG3008	DRSC00560	3.40e7	3.94e7	1.60e7	1.79e7	inactive
CG15564	DRSC15102	4.08e7	5.29e7	2.00e7	2.34e7	inactive
ClpX	DRSC15592	3.03e7	2.99e7	1.35e7	1.14e7	inactive
Mst84Dd	DRSC12600	3.29e7	2.26e7	1.63e7	1.23e7	inactive
CG17564	DRSC02626	4.47e7	5.03e7	2.03e7	2.01e7	inactive

Limited to “calcium entry signal, replicate 1 (fluorescence units)” (5 entries from above):
Dyro [DRSC10598] = 3.07e7
CG14495 [DRSC06466] = 4.57e7
Jhbp12 [DRSC14621] = 3.90e7
Tmtc2 [DRSC00272] = 4.87e7
Cdk9 [DRSC04601] = 1.68e7
